In PubChem BioAssay AID540275 (National Center for Advancing Translational Sciences (NCATS), 2011):
The campaign covered roughly 320,000 compounds. About 620 (0.19%) were called active. This list was built around the results that the source calls inconclusive (neither active nor inactive); the mix of calls is not that of the screen. Rule as the data show it: active = activation above about 80%; inconclusive = between about 30% and that limit; inactive = weaker than that.
Also: 0% is about no effect.

Amino acid sequences for entries named in this document (tags omitted).
UniProt Q8NER1, whole entry, looked up: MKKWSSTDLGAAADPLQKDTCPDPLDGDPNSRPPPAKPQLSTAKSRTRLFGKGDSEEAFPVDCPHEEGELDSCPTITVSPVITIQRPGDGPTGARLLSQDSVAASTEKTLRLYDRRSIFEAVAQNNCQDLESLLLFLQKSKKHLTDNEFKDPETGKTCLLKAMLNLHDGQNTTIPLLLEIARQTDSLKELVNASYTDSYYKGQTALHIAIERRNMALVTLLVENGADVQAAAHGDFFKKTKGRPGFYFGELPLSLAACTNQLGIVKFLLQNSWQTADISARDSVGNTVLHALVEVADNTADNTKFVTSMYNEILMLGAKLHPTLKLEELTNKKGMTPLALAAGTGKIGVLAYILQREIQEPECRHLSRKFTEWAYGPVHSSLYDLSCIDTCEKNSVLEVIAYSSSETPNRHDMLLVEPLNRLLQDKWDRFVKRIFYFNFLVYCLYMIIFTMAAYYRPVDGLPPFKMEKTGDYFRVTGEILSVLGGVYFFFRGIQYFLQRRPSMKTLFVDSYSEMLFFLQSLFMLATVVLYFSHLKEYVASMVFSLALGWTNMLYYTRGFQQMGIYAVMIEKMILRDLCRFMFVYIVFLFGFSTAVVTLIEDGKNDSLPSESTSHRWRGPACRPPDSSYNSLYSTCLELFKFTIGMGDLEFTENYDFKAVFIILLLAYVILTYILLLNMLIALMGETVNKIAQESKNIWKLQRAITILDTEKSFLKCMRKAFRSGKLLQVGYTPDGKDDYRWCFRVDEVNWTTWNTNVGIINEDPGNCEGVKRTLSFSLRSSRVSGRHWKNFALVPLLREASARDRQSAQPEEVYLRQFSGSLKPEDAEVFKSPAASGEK

Each compound was assayed against Transient receptor potential cation channel subfamily V member 1 (Homo sapiens) (UniProt Q8NER1) (assay: HTS Assay for Compounds that Act as Agonists of the Vanilloid Receptor 1). Details: TRPV1-expressing cells, Fluo-8 calcium influx, agonist mode; at 8.33 µM, stronger effect = higher value.
How it was run: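 TRPV1-expressing cells were cultured overnight at 35.5C and loaded with Fluo-8 calcium dye for 40 to 90 min at room temperature. After a 10 s baseline, compound was added and calcium influx was read kinetically for 3 min (ex 480/em 520 nm).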
With `c1ccc(Cc2nn3c(C4COc5ccccc5O4)nnc3s2)cc1` (centres undefined) the activation was inconclusive: 37.5%. With `COc1ccc(C(=O)Nc2ccccc2C(=O)N/N=C/c2ccc(O)c(OC)c2)cc1` the activation was inconclusive: 48.2%. `O=C(O)c1ccc(S(=O)(=O)c2ccc3c(c2)C(=O)N(NC(=O)c2ccccc2)C3=O)cc1` was tested, and the activation was inconclusive: 32.4%. `Cc1ccc(N2CC(C(=O)OCc3ccccc3)CC2=O)cc1` (centres undefined) was tested, and the activation was inconclusive: 47.4%. In the case of `COCCN(C(=O)COC(=O)CCSc1ccc(F)cc1)c1c(N)n(Cc2ccccc2)c(=O)[nH]c1=O`, the activation is reported as inactive: -2.72%. For `CCc1c(C)c(C#N)c2[nH]c3ccccc3n2c1=S`, the activation was inactive: 2.66%. With `Cc1ccc(NC(=O)Nc2nc(-c3ccc(C)s3)cs2)cc1` the activation was inconclusive: 41.1%. With `O=C(NCc1ccccc1)c1ccc(F)c(F)c1` the activation was inconclusive: 60.1%. With `COc1ccc(NC(=O)c2ccc(COc3ccccc3Br)o2)cc1OC` the activation was inconclusive: 34.5%. With `Cc1cc(OCC(=O)NNC(=O)c2ccncc2)ccc1C(C)C` the activation was inconclusive: 37.4%. `CC(C)c1ccc(NC(=S)NNC(=O)c2cccnc2)cc1` was tested, and the activation was inconclusive: 57.2%. For `Cc1cccc(-c2nnc(SC(C)C(=O)N3CCOCC3)o2)c1` (centres undefined), the activation was inactive: 9.35%. `O=C1C=C(c2cc(F)ccc2F)C[C@@H](c2ccc(F)cc2)C1` was tested, and the activation was inconclusive: 46.2%. For `CCOC(=O)C1CCCN(CC(O)COc2ccccc2C(C)=O)C1` (centres undefined), the activation was inactive: -4.25%. For `Cc1ccc(-c2csc(NC(=O)c3cccc(S(=O)(=O)N4CCN(C)CC4)c3)n2)cc1`, the activation was inactive: -2.66%. `Cc1ccccc1OCC(=O)O/N=C(\N)Cc1cccs1` was tested, and the activation was inconclusive: 37.2%. For `Cc1ccc(Oc2nc(CN3CCOCC3)nc3sc4c(c23)CCC(C)C4)cc1C` (centres undefined), the activation was inconclusive: 35.7%. `C=CCN=c1scc(-c2ccc(F)cc2)n1/N=C/c1ccccn1` was tested, and the activation was inactive: 3.42%. `COc1ccc(NC2=C(C(C)=O)C(c3ccc(N(C)C)cc3)C(C(C)=O)C(C)(O)C2)cc1` (centres undefined) was tested, and the activation was inconclusive: 41.1%. In the case of `Cc1sc2nc(C3CC3)nc(N3CCN(C(=O)c4ccc(Cl)cc4)CC3)c2c1C`, the activation is reported as inactive: 15.8%. In the case of `O=C(COC(=O)c1ccc([N+](=O)[O-])s1)NCc1ccc(F)cc1`, the activation is reported as inconclusive: 54.6%. With `CS(=O)(=O)N(CC(=O)Nc1ccccc1C(=O)N1CCCC1)c1ccccc1Br` the activation was inconclusive: 34.8%. For `COc1cc(-c2cc(C(=O)Nc3ccc(O)cc3)c3ccccc3n2)cc(OC)c1OC`, the activation was inconclusive: 30.6%. `COCc1nc2ccccc2n1CCc1ccccc1` was tested, and the activation was inconclusive: 69.1%. `CCCCC(=O)Nc1ccc(C(=O)Nc2ccc3c(c2)OCO3)cc1` was tested, and the activation was inconclusive: 30.7%. `COc1ccc(C(=O)N2CCCC(Nc3ccc(C)c(C)c3)C2)c(OC)n1` (centres undefined) was tested, and the activation was inconclusive: 46.9%. For `Cc1ccc(OCC(=O)Nc2cccnc2Cl)cc1C`, the activation was inconclusive: 34.2%. `Fc1ccccc1CSc1ccc(-c2ccco2)nn1` was tested, and the activation was inconclusive: 55.3%. `CS(=O)(=O)N1CCN(c2ccc(NC(=O)c3ccc(-c4ccc(Cl)cc4)o3)cc2)CC1` was tested, and the activation was inactive: 2.79%. For `CC(C)(CNC(=O)c1ccc(-c2ccccc2Cl)o1)N1CCOCC1`, the activation was inconclusive: 40.7%. With `COc1ccc(NC(=S)NC(=O)Cc2ccccc2)cc1` the activation was inconclusive: 48.3%. For `c1ccc2c(c1)CCN(c1ncnc3c1[nH]c1ccccc13)C2`, the activation was inconclusive: 72.2%. For `O=C(c1ccc(S(=O)(=O)Nc2cccc(C(F)(F)F)c2)cc1)N1CCC1`, the activation was inactive: 0.614%. In the case of `Nc1ccc(O)cc1C(=O)OCC(=O)c1ccc(C2CCCCC2)cc1`, the activation is reported as inconclusive: 65.7%. `C=CCSc1nnc(NC(=O)c2ccc(S(=O)(=O)NCC3CCCO3)cc2)s1` (centres undefined) was tested, and the activation was inconclusive: 30.7%. With `Cc1cccc(NC(=O)c2ccc(S(=O)(=O)N3CCCCCC3)cc2)n1` the activation was inconclusive: 56%. With `COC(=O)c1[nH]c2cccc(Cl)c2c1NC(=O)CN(C)C1CCCCC1` the activation was inconclusive: 36.5%. For `C/C(=N\NC(=O)c1cc(O)ccc1O)c1cccc(NC(=O)c2cccc(Cl)c2)c1`, the activation was inconclusive: 37.2%. With `COc1cc(/C=C2/SC(=S)N(Cc3ccccc3)C2=O)cc(Cl)c1O` the activation was inconclusive: 72.3%. In the case of `CCc1ccc(NC(=O)C2CCCN(S(=O)(=O)c3cccs3)C2)cc1` (centres undefined), the activation is reported as inconclusive: 51.7%. In the case of `COc1ccc(OC)c(C(=O)N2CCCC(Nc3ccc(F)cc3)C2)c1` (centres undefined), the activation is reported as inconclusive: 60.3%. In the case of `COc1ccc(C(=O)Nc2ccccc2C(=O)Nc2cccnc2)cc1`, the activation is reported as inconclusive: 30.4%. In the case of `Cc1ccc(NC(=O)CCCNC(=O)c2ccc(Cl)cc2)c(O)c1`, the activation is reported as inconclusive: 33.1%. In the case of `Cc1ccc(C(=O)NN2C(=O)c3ccc(S(=O)(=O)c4ccc(C(=O)O)cc4)cc3C2=O)cc1`, the activation is reported as inconclusive: 77.8%. `COc1ccc(OC)c(/C=N/NC(=O)c2ccc[n+](CC(=O)c3ccccc3)c2)c1` was tested, and the activation was inactive: -2.79%. With `COc1ccccc1-c1n[nH]c(=S)n1Cc1ccco1` the activation was inactive: -1.14%. In the case of `Nc1ccc(-c2c3ccc(=O)cc-3oc3cc(O)ccc23)cc1C(=O)O`, the activation is reported as active: 93.3%. With `COc1ccc(CCn2c(C)cc(C(=O)CCl)c2C)cc1OC` the activation was inactive: 2.27%. For `CCCN(CCC)S(=O)(=O)c1cccc(C(=O)Nc2ccc3c(c2)OCO3)c1`, the activation was inconclusive: 38.8%. For `CCCn1nnnc1NC(=O)COc1ccc(Br)cc1`, the activation was inactive: -3.68%. For `Cc1noc(C)c1C(=O)N1CCCC(Nc2ccc(C(C)C)cc2)C1` (centres undefined), the activation was inconclusive: 60.8%. With `COc1cccc(OCc2cc(C(=O)N(C)CCOc3ccc(C)cc3)no2)c1` the activation was inconclusive: 33.8%. For `Cc1oc(C)c(C(=O)O)c1COc1ccc(C(=O)O)cc1`, the activation was inactive: 1.31%. `CCOc1cc(/C=C/c2nc3ccccc3s2)ccc1OCC(=O)N1CCOCC1` was tested, and the activation was inconclusive: 50.9%. `CCCC(C(=O)Nc1ccc(S(=O)(=O)Nc2nccs2)cc1)c1ccccc1` (centres undefined) was tested, and the activation was inactive: -1.39%. In the case of `CCCC(=O)Nc1sc2c(c1C(=O)Nc1ccccn1)CCCC2`, the activation is reported as inconclusive: 64%. `COc1ccc(C(=O)COC(=O)CCc2ccccc2)cc1` was tested, and the activation was inconclusive: 32.9%. For `Cc1cccc(NC(=O)c2ccc([N+](=O)[O-])s2)n1`, the activation was inconclusive: 40.9%. For `COc1ccc(-c2noc(CCC(=O)NCCN3CCN(c4ccccc4F)CC3)n2)cc1`, the activation was inactive: 1.78%. In the case of `Cn1c2c(c(=O)n(C)c1=O)C(c1ccccc1Cl)C(C#N)=C(N)O2` (centres undefined), the activation is reported as inactive: -1.51%. For `Cc1ccc(CNC(=O)Nc2ccccc2)c(C)c1`, the activation was inconclusive: 70.7%. For `O=C(CSCC(=O)N1CCOCC1)Nc1nc(-c2ccccc2)cs1`, the activation was inactive: 0.762%. `CC(CC(=O)NCc1ccc(F)cc1)c1ccccc1` (centres undefined) was tested, and the activation was inconclusive: 35.7%. In the case of `COc1ccc(N2CCN(C(=O)Cc3ccc(Cl)cc3)CC2)cc1`, the activation is reported as inconclusive: 57.9%. With `COc1ccc(OCc2cc(C(=O)N3CCCC(CO)C3)no2)c2ccccc12` (centres undefined) the activation was inconclusive: 36.3%. `O=[N+]([O-])c1c(Nc2ccccc2)ccc2nonc12` was tested, and the activation was inactive: -1.49%. For `CCn1c(=O)cc(NC2=NCC(C)CN2c2cccc(Cl)c2)n(C)c1=O` (centres undefined), the activation was inconclusive: 31%. In the case of `COc1ccc(CN(C)C(=O)C23CC4CC(CC(C4)C2)C3)c(OC)c1`, the activation is reported as inconclusive: 35.1%. For `CCOc1ccccc1Cn1c(=O)oc2ccc(C)cc21`, the activation was inactive: 12.2%. `COc1c(/C=N/Nc2nc(N3CCCCC3)nc(N3CCCCC3)n2)cccc1[N+](=O)[O-]` was tested, and the activation was inconclusive: 68.4%. `OC1CCN(c2cc(-c3ccccc3)nc3cc(-c4ccc(F)cc4)nn23)CC1` was tested, and the activation was inactive: 4.46%. `CC(CC(=O)Nc1ccc(Cl)c(S(=O)(=O)N2CCOCC2)c1)c1ccccc1` (centres undefined) was tested, and the activation was inconclusive: 40.8%. For `O=C(CSc1nnc2c(n1)[nH]c1ccccc12)N1CCCCC1`, the activation was inactive: 0.333%. For `CN(C)c1cccc(C(=O)OCC(=O)Nc2ccccc2Cl)c1`, the activation was inconclusive: 39%. With `Cc1ccc(S(=O)(=O)N(CC(=O)NCc2ccncc2)Cc2ccccc2F)cc1` the activation was inconclusive: 34.8%. `O=C(Nc1ccc(Cl)cc1)N1CCC(c2nc(-c3ccccc3Cl)no2)CC1` was tested, and the activation was inactive: 6.27%. For `CCCC1=NN2C(=N)/C(=C\c3ccc(OCCOc4ccc(NC(C)=O)cc4)c(OC)c3)C(=O)N=C2S1`, the activation was inactive: 0.0238%. With `Cc1cc(Br)cc(/C=N/NC(=O)c2ccc3c(c2)OCO3)c1O` the activation was inactive: 26.3%. `COC(=O)c1c(NC(=O)C(=O)N2CCCC2)sc2c1CC(C)(C)OC2` was tested, and the activation was inconclusive: 34.7%. `O=[N+]([O-])c1cc([N+](=O)[O-])c(Oc2ccc(Cl)c3cccnc23)cc1NN1CCCCC1` was tested, and the activation was inconclusive: 70.7%. In the case of `CSc1cccc(NC(=O)CSc2ccc(C)cc2)c1`, the activation is reported as inconclusive: 52.1%. With `COc1ccc(N2CCN(C(=O)Nc3ccc(S(=O)(=O)N(C)C)cc3)CC2)cc1` the activation was inconclusive: 41.2%. With `COc1ccc(/C=N/Nc2nc(N3CCCC3)nc(N3CCCC3)n2)cc1` the activation was inactive: 23.4%. `CC(C)Cn1c(SC(C)C(=O)NCC2CCCO2)nc2ccc(Cl)cc2c1=O` (centres undefined) was tested, and the activation was inconclusive: 70.8%. `C=CCSc1nnc(NC(=O)c2nc(SCC)ncc2Cl)s1` was tested, and the activation was inactive: -0.195%. With `Cc1cc(C(=O)NC2CCCc3c2cnn3-c2ccc(C(C)(C)C)cc2)nn1C` (centres undefined) the activation was inactive: 1.27%. With `O=C(Nc1ccc(Cl)c(Cl)c1)c1csc(-c2ccccc2)n1` the activation was inconclusive: 35.1%. For `CCCCCN1C=CC=C/C1=C\C=C(C#N)C#N`, the activation was inactive: 26.9%. For `O=C(CSc1ncccn1)NC1CCCc2ccccc21` (centres undefined), the activation was inconclusive: 34.2%.
